Data as given in publication PMC8575788.

What was measured:
HA-tagged LAP2α (human) [1] = experiment: co-IP; HEK293T cells co-transfected with both partners; whole-cell extracts (buffer X: 100 mM Tris-HCl, 250 mM NaCl, 1 mM EDTA, 1% NP-40, Benzonase, sonication) immunoprecipitated with anti-FLAG or anti-HA antibody, immunoblotting
HA-tagged LAP2α (human) [2] = experiment: co-IP; HEK293T cells transfected with HA-tagged LAP2α alone; whole-cell extracts immunoprecipitated with anti-HA antibody, immunoblotting for endogenous proteins
endogenous LAP2α = experiment: co-IP; attempt to detect interactions between endogenous proteins; cells and antibody not told

B1: RFC1 (transiently overexpressed) (protein, UniProt P35251 1-1148)
chain: MDIRKFFGVIPSGKKLVSETVKKNEKTKSDEETLKAKKGIKEIKVNSSRKEDDFKQKQPSKKKRIIYDSDSESEETLQVKNAKKPPEKLPVSSKPGKISRQDPVTYISETDEEDDFMCKKAASKSKENGRSTNSHLGTSNMKKNEENTKTKNKPLSPIKLTPTSVLDYFGTGSVQRSNKKMVASKRKELSQNTDESGLNDEAIAKQLQLDEDAELERQLHEDEEFARTLAMLDEEPKTKKARKDTEAGETFSSVQANLSKAEKHKYPHKVKTAQVSDERKSYSPRKQSKYESSKESQQHSKSSADKIGEVSSPKASSKLAIMKRKEESSYKEIEPVASKRKENAIKLKGETKTPKKTKSSPAKKESVSPEDSEKKRTNYQAYRSYLNREGPKALGSKEIPKGAENCLEGLIFVITGVLESIERDEAKSLIERYGGKVTGNVSKKTNYLVMGRDSGQSKSDKAAALGTKIIDEDGLLNLIRTMPGKKSKYEIAVETEMKKESKLERTPQKNVQGKRKISPSKKESESKKSRPTSKRDSLAKTIKKETDVFWKSLDFKEQVAEETSGDSKARNLADDSSENKVENLLWVDKYKPTSLKTIIGQQGDQSCANKLLRWLRNWQKSSSEDKKHAAKFGKFSGKDDGSSFKAALLSGPPGVGKTTTASLVCQELGYSYVELNASDTRSKSSLKAIVAESLNNTSIKGFYSNGAASSVSTKHALIMDEVDGMAGNEDRGGIQELIGLIKHTKIPIICMCNDRNHPKIRSLVHYCFDLRFQRPRVEQIKGAMMSIAFKEGLKIPPPAMNEIILGANQDIRQVLHNLSMWCARSKALTYDQAKADSHRAKKDIKMGPFDVARKVFAAGEETAHMSLVDKSDLFFHDYSIAPLFVQENYIHVKPVAAGGDMKKHLMLLSRAADSICDGDLVDSQIRSKQNWSLLPAQAIYASVLPGELMRGYMTQFPTFPSWLGKHSSTGKHDRIVQDLALHMSLRTYSSKRTVNMDYLSLLRDALVQPLTSQGVDGVQDVVALMDTYYLMKEDFENIMEISSWGGKPSPFSKLDPKVKAAFTRAYNKEAHLTPYSLQAIKASRHSTSPSLDSEYNEELNEDDSQSDEKDQDAIETDAMIKKKTKSSKPSKPEKDKEPRKGKGKSSKK
For B1, the binding (HA-tagged LAP2α (human) [1]) was “binds”.

B2: endogenous RFC1 (protein, UniProt P35251 1-1148)
chain: MDIRKFFGVIPSGKKLVSETVKKNEKTKSDEETLKAKKGIKEIKVNSSRKEDDFKQKQPSKKKRIIYDSDSESEETLQVKNAKKPPEKLPVSSKPGKISRQDPVTYISETDEEDDFMCKKAASKSKENGRSTNSHLGTSNMKKNEENTKTKNKPLSPIKLTPTSVLDYFGTGSVQRSNKKMVASKRKELSQNTDESGLNDEAIAKQLQLDEDAELERQLHEDEEFARTLAMLDEEPKTKKARKDTEAGETFSSVQANLSKAEKHKYPHKVKTAQVSDERKSYSPRKQSKYESSKESQQHSKSSADKIGEVSSPKASSKLAIMKRKEESSYKEIEPVASKRKENAIKLKGETKTPKKTKSSPAKKESVSPEDSEKKRTNYQAYRSYLNREGPKALGSKEIPKGAENCLEGLIFVITGVLESIERDEAKSLIERYGGKVTGNVSKKTNYLVMGRDSGQSKSDKAAALGTKIIDEDGLLNLIRTMPGKKSKYEIAVETEMKKESKLERTPQKNVQGKRKISPSKKESESKKSRPTSKRDSLAKTIKKETDVFWKSLDFKEQVAEETSGDSKARNLADDSSENKVENLLWVDKYKPTSLKTIIGQQGDQSCANKLLRWLRNWQKSSSEDKKHAAKFGKFSGKDDGSSFKAALLSGPPGVGKTTTASLVCQELGYSYVELNASDTRSKSSLKAIVAESLNNTSIKGFYSNGAASSVSTKHALIMDEVDGMAGNEDRGGIQELIGLIKHTKIPIICMCNDRNHPKIRSLVHYCFDLRFQRPRVEQIKGAMMSIAFKEGLKIPPPAMNEIILGANQDIRQVLHNLSMWCARSKALTYDQAKADSHRAKKDIKMGPFDVARKVFAAGEETAHMSLVDKSDLFFHDYSIAPLFVQENYIHVKPVAAGGDMKKHLMLLSRAADSICDGDLVDSQIRSKQNWSLLPAQAIYASVLPGELMRGYMTQFPTFPSWLGKHSSTGKHDRIVQDLALHMSLRTYSSKRTVNMDYLSLLRDALVQPLTSQGVDGVQDVVALMDTYYLMKEDFENIMEISSWGGKPSPFSKLDPKVKAAFTRAYNKEAHLTPYSLQAIKASRHSTSPSLDSEYNEELNEDDSQSDEKDQDAIETDAMIKKKTKSSKPSKPEKDKEPRKGKGKSSKK
B2 was tested, and the binding (HA-tagged LAP2α (human) [2]) was “no binding” and the binding (endogenous LAP2α) was “no binding”.

These are yes or no findings as the source states them, for the method shown. In cells and extracts the contact can be indirect. For part of these data: Binding can be weak; no strength is given.
